# Results taken from PubChem BioAssay AID2685 (National Center for Advancing Translational Sciences (NCATS), 2010).
# The other results are listed elsewhere or left out. Further columns of the screen follow, without active or inactive calls. The list favours compounds with an active or inconclusive main result. Words in brackets tell the shape of the fitted curve; partial curves, single points and poor fits give uncertain potencies.
# Assay: qHTS Assay for Lipid Storage Modulators in Drosophila S3 Cells;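 on cell number change: cells counted by Cell Tracker Red CMTPX staining in the red channel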
# Conditions: BODIPY lipid droplet fluorescence, 18-24 h; for cell number change: measured here: cell count max response, cells fed with added oleic acid
# In short: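 Laser-scanning cytometry quantifies lipid droplet accumulation (500–530 nm total intensity; droplet/cell object ratio) in oleic acid-fed (400 uM added) Drosophila S3 cells treated with a concentration series. 20 uM Triacsin C defined 100% inhibition.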
# [1] = measured here: cell number channel AC50, cells fed with added oleic acid
# [2] = measured here: lipid fluorescence (Fed channel) AC50, cells fed with added oleic acid
smiles,measurement,setting,value
O=C(NC(=S)Nc1cccc(Cl)c1N1CCCCC1)c1ccco1,cell number change,,-18.4%
COc1ccccc1OCc1nnc(SCC(=O)Nc2nnc(C3CC3)s2)n1C,cell number change,,202%
same,AC50,[1],"23.1 µM [rising, partial curve]"
same,AC50,[2],"1.03 µM [rising, full curve]"
Cc1ccc(-c2cc(C(=O)NCCCN3CCOCC3)c3ccc(Cl)c(C)c3n2)cc1,cell number change,,-4.58%
same,AC50,[1],"1.3 µM [rising, full curve]"
O=c1nc(/C=C/c2ccc(-c3ccc(F)cc3)o2)cc(C(F)(F)F)[nH]1,AC50,[2],"1.03 µM [falling, full curve]"
CC(=O)c1ccc(C(=O)NC2CCCN(Cc3ccccc3F)C2)s1 (stereo unspecified),cell number change,,0.587%
same,AC50,[1],"2.31 µM [rising, single point]"
C[C@@H](C(=O)OCC(=O)NCCc1ccc(S(N)(=O)=O)cc1)N1C(=O)C2CCCCC2C1=O (stereo partly specified),cell number change,,-46.5%
same,AC50,[1],"0.651 µM [falling, full curve]"
same,AC50,[2],"0.82 µM [falling, full curve]"
Cc1ccc(-c2cc(C(=O)N/N=C/c3c[nH]c4ccccc34)[nH]n2)cc1,cell number change,,3.15%
same,AC50,[2],"0.291 µM [rising, partial curve, poor fit]"
COc1ccccc1N1CCN(C(=O)CN(Cc2ccccc2)S(C)(=O)=O)CC1,cell number change,,-27%
same,AC50,[2],"2.06 µM [rising, single point]"
COC(=O)c1cc(-c2cccs2)nn1-c1ccccc1,cell number change,,45.5%
same,AC50,[1],"29.1 µM [rising, single point]"
same,AC50,[2],"20.6 µM [rising, single point]"
CC(=O)N/C(=C\c1ccccc1)C(=O)OCC(=O)NC1CCS(=O)(=O)C1 (stereo unspecified),cell number change,,-29.1%
same,AC50,[1],"0.13 µM [falling, full curve, poor fit]"
same,AC50,[2],"20.6 µM [falling, single point]"
O=C(Nc1ccc(NC(=O)C2CC2)cn1)c1ccccc1,cell number change,,-1.28%
CC1Sc2ccc(C(=O)NCc3cccc(C(F)(F)F)c3)cc2NC1=O (stereo unspecified),cell number change,,-47.4%
same,AC50,[1],"16.4 µM [falling, single point]"
O=C(NC(=O)c1cccc(F)c1)Nc1nc(-c2ccc(F)cc2)cc(C(F)(F)F)n1,cell number change,,40.4%
same,AC50,[1],"2.59 µM [rising, full curve, poor fit]"
same,AC50,[2],"4.61 µM [rising, full curve, poor fit]"
COc1ccc(CNC(=O)C2CCN(S(=O)(=O)N3CCCCC3)CC2)c(OC)c1,cell number change,,-11.9%
Cc1ccc(-c2nnc(-c3cccc(Br)c3)o2)cc1,cell number change,,-28.8%
same,AC50,[2],"6.51 µM [rising, single point]"
CCCCc1cc(=O)oc2c3c(cc(OCC(=O)N4CCC[C@H]4C(=O)O)c12)OC(C)(C)CC3,cell number change,,18.4%
COc1ccccc1-c1nc2cc3ccccc3cc2nc1-c1ccccc1,cell number change,,19.1%
same,AC50,[2],"1.46 µM [rising, partial curve]"
CC1(C)CC(=O)C=C(NCCN2CCN(C(=O)Nc3ccccc3)CC2)C1,cell number change,,-43%
same,AC50,[1],"0.731 µM [falling, full curve]"
same,AC50,[2],"3.66 µM [falling, full curve]"
COc1cc(OC)c(CN2CCCCCCC2)cc1Br,AC50,[2],"29.1 µM [falling, partial curve]"
O=S(=O)(Cc1ccccc1)N1CCCC(c2nc(-c3ccc(F)cc3)no2)C1 (stereo unspecified),cell number change,,-29.7%
same,AC50,[2],"29.1 µM [rising, single point]"
Cc1ccc2c(c1)nnn2C1CCN(CC(=O)NNC(=O)c2ccco2)CC1,cell number change,,20%
same,AC50,[2],"32.6 µM [rising, single point]"
CNC(=S)NNC(=O)c1sc2cc(C(F)(F)F)cnc2c1-c1cccnc1,cell number change,,24.8%
CC(C)(C)SC(C(=O)N1CCOCC1)c1ccc(Br)cc1 (stereo unspecified),cell number change,,10.4%
same,AC50,[2],"6.51 µM [rising, single point]"
CCCNS(=O)(=O)c1ccc(OCC(=O)N2CCN(c3ccccc3)CC2)cc1,cell number change,,-0.241%
N#Cc1cnn2ccc(-c3ccc4c(c3)CCC4)nc12,cell number change,,-15.6%
same,AC50,[1],"0.82 µM [falling, full curve, poor fit]"
same,AC50,[2],"3.26 µM [falling, partial curve, poor fit]"
COc1cccc(/C=C/C(=C2/C(=O)N(c3ccccc3)N=C2C)c2ccc(C)cc2)c1OC,cell number change,,-29.5%
same,AC50,[2],"0.0326 µM [rising, partial curve, poor fit]"
FC(F)(F)c1ccc(N2CCOCC2)c(NC2=NCCCCC2)c1,cell number change,,-4.47%
Cc1nc(SCC(=O)N(CC(C)C)C2CCS(=O)(=O)C2)c2c(C)c(C)sc2n1 (stereo unspecified),cell number change,,3.73%
same,AC50,[2],"2.31 µM [rising, partial curve, poor fit]"
N#CC1=C(N)Oc2cc(O)c(Cl)cc2C1c1ccccc1F (stereo unspecified),cell number change,,14.5%
same,AC50,[2],"29.1 µM [rising, single point]"
CCOc1ccc(CCNC(=O)CN2CCN(Cc3ccccc3C)C2=O)cc1OCC,cell number change,,-42.1%
same,AC50,[1],"13 µM [falling, partial curve]"
same,AC50,[2],"0.82 µM [falling, full curve, poor fit]"
O=C(Nc1ccccc1Br)c1cc(=O)c2ccccc2o1,cell number change,,12.5%
Cc1nc(-c2ccc(NC(=O)C(C)(C)C)cc2)c(-c2ccccc2)o1,cell number change,,-7.64%
same,AC50,[1],"2.31 µM [falling, partial curve, poor fit]"
same,AC50,[2],"1.3 µM [falling, partial curve]"
Cc1ccc(C(=O)NCC(=O)N2CCC(Cc3ccccc3)CC2)cc1,cell number change,,-8.74%
same,AC50,[2],"0.00517 µM [falling, full curve, poor fit]"
COc1cccc(OC)c1C(=O)Nn1c(C2CCC2)nc2ccccc2c1=O,cell number change,,-15.7%
same,AC50,[2],"29.1 µM [falling, partial curve, poor fit]"
O=C(/C=C/c1ccccc1)NC(NC(=S)Nc1cc(Cl)ccc1Cl)C(Cl)(Cl)Cl (stereo unspecified),AC50,[2],"18.4 µM [falling, partial curve]"
Cc1ccc(C(=O)N2CCN(c3ccc([N+](=O)[O-])cc3-n3cccc3)CC2)cc1,cell number change,,23.6%
same,AC50,[2],"0.517 µM [rising, full curve]"
CCCN(CCC)C(=O)CSc1nc2n[nH]c(C)c2c(=N)n1-c1ccc(OCC)cc1,AC50,[2],"0.58 µM [falling, single point]"

# 4 entries drawn at random from the list so far, as already listed:
smiles,measurement,setting,value
COC(=O)c1cc(-c2cccs2)nn1-c1ccccc1,AC50,[1],"29.1 µM [rising, single point]"
COc1cccc(/C=C/C(=C2/C(=O)N(c3ccccc3)N=C2C)c2ccc(C)cc2)c1OC,AC50,[2],"0.0326 µM [rising, partial curve, poor fit]"
CCCN(CCC)C(=O)CSc1nc2n[nH]c(C)c2c(=N)n1-c1ccc(OCC)cc1,AC50,[2],"0.58 µM [falling, single point]"
C[C@@H](C(=O)OCC(=O)NCCc1ccc(S(N)(=O)=O)cc1)N1C(=O)C2CCCCC2C1=O (stereo partly specified),cell number change,,-46.5%
